Data from paper PMC10670996.
These are yes or no findings as the source states them, for the method shown. For some assays here: Binding seen in cells or lysates may run through a third protein. Some binding calls cover weakened binding; strength is not graded here.

Sequences of proteins named here, by UniProt entry; tags and fusion partners are left off.
UniProt P0DMB2: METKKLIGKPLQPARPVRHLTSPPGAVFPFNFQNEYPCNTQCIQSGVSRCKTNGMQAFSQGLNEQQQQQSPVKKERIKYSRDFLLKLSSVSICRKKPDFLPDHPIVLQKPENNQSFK
UniProt P06730: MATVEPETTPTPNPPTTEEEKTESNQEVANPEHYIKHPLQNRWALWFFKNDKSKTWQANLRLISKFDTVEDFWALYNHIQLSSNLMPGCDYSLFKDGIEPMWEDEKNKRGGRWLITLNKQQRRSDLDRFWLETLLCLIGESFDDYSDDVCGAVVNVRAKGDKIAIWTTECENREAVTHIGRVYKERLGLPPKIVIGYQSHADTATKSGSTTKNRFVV

Tests used:
[1] = biological target: Flag-C8ORF88 (HEK293T) (not stated (human or mouse cDNA cloned)) (UniProt P0DMB2); assay: co-IP; lysates (NP40 lysis buffer) of transfected HEK293T, 24 h post-transfection; anti-FLAG M2 magnetic beads 1 h on ice, 5 washes; blots anti-DDDDK and anti-eIF4E
[2] = biological target: Endogenous eIF4E (human (endogenous in HEK293T)) (UniProt P06730); assay: pull-down; m7GTP cap-affinity chromatography of lysates (NP40 lysis buffer) of transfected HEK293T; LCB washes, 500 µM GTP washes, eluted with 500 µM m7GTP; blots anti-DDDDK and anti-eIF4E
[3] = biological target: eIF4E (in vitro translated) (UniProt P06730); assay: pull-down; m7GTP cap-affinity chromatography of wheat germ translations ([35S]-methionine; each mRNA co-translated with eIF4E mRNA); resin 2 h 4 °C, LCB Buffer (20 mM Hepes pH 7.5, 0.1 M KCl, 0.2 mM EDTA) washes, 500 µM GTP washes, eluted with 500 µM m7GTP; autoradiography
[4] = biological target: His-eIF4E (UniProt P06730); assay: pull-down; cap-pulldown on m7GTP agarose of recombinant His-eIF4E (2.5 µg) with GST protein (0.5 µg) in 50 µL LCB Buffer, 1 h RT, then resin, GTP washes, m7GTP elution; blots anti-GST and anti-His (Figure S2); both purified
[5] = biological target: GST-C8ORF88 (not stated (human or mouse cDNA cloned)) (UniProt P0DMB2); assay: pull-down; GST pulldown: 2.5 µg GST protein with 0.5 µg His-eIF4E or His-eIF4E(W73A) in 50 µL Binding Buffer (20 mM Tris pH 7.5, 100 mM KCl, 10% glycerol, 0.1% NP-40), 1 h room temperature; Glutathione Sepharose 1 h on ice; eluted with 10 mM reduced glutathione; blots anti-GST and anti-His; both purified

For “Endogenous eIF4E (from UniProt P06730 1-217)”, the binding [1] was “binds”.

For “Flag-C8ORF88 (HEK293T) (from UniProt P0DMB2 1-117)”, the binding [2] was “binds”.

With “Flag-C8ORF88 (in vitro translated) (from UniProt P0DMB2 1-117)” the binding [3] was “binds”.

In the case of GST-C8ORF88 (from UniProt P0DMB2 1-117), the binding [4] was “binds”.

With His-eIF4E (from UniProt P06730 1-217) the binding [5] was “binds”.
